Among the data in PubChem BioAssay AID1487 (National Center for Advancing Translational Sciences (NCATS), 2009) are AC50 values, retold here.

The other results are listed elsewhere or left out. These are further read-outs of the screen, such as a control signal, another cell line or another target. No call is given for them. Compounds called inactive in the main read-out are mostly missing here. Potencies come from curve fits of mixed quality, noted in brackets.

The assay is described as follows: qHTS Assay for Modulators of Lamin A Splicing. As to conditions: HeLa LMNA splicing GFP/RFP minigene ratio, 48 h. An outline of the steps:
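Read-out is the ratio of GFP to DsRed2 object intensity, acquired by 488 nm laser-scanning cytometry on HeLa lamin A-EGFP minigene reporter cells. Compound incubation 48 hrs at 37 °C in Opti-MEM with 2% FBS; DMSO 0.5% final.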
(qHTS replaces the single test concentration by a dilution series.)

[1] abbreviates: measured here: GFP splicing reporter channel.
The mark [2] stands for this setting: measured here: RFP viability control channel.

In general, AC50 refers to the midpoint of the concentration-response curve, whichever way the signal moves. For `COc1ccc(CSCCNC(=S)Nc2ccccc2)cc1Cl`, the AC50 under setting [1] is 1.26 µM [falling, full curve, poor fit].

In the case of `Cc1cc(NC(=O)c2ccccc2F)n(C(C)(C)C)n1`, the AC50 under setting [1] was 0.0631 µM [rising, full curve, poor fit].

Regarding `Cc1cc(C(=O)OCC(=O)N2CC(=O)Nc3ccccc32)c(C)n1-c1ccccc1`, the AC50 by setting is: under setting [1], 31.6 µM [rising, single point]; under setting [2], 35.5 µM [rising, single point].

With `O=C(Oc1ccc2c(=O)c(Oc3ccc4ccccc4c3)coc2c1)c1cccnc1`, the AC50 under setting [2] is 20 µM [rising, single point].

On to `O=[N+]([O-])c1ccc(N2CCN(S(=O)(=O)Cc3ccccc3)CC2)cc1N1CCOCC1`, for which the AC50 under setting [2] was 35.5 µM [rising, single point].

As to `CCCc1cc(C(N)=S)ccn1`, the AC50 under setting [1] was 35.5 µM [falling, single point] and the AC50 under setting [2] is 0.794 µM [falling, single point].

Consider `Cc1ccc(F)cc1NC(=O)C1CC(=O)N(CCc2ccccc2)C1` (stereo not given), for which the AC50 under setting [2] is 3.98 µM [falling, full curve].

For the compound `c1ccc(-c2nc(NCc3ccco3)c3ccccc3n2)nc1`, the AC50 under setting [2] is 31.6 µM [rising, single point].

For `Cc1ccccc1OS(=O)(=O)c1cn(C)c(=O)n(C)c1=O`, the AC50 is, setting by setting: under setting [1], 0.398 µM [rising, full curve, poor fit]; under setting [2], 0.126 µM [rising, full curve, poor fit].

`Cc1ccc(NC(=O)c2ccccc2OCC(=O)Nc2cccc(Cl)c2C)nc1`: the half-maximal activity concentration (AC50) under setting [1] is 35.5 µM [falling, single point].

For `Fc1ccccc1/C=C1\CCCC2=C1Nc1nnnn1C2c1ccccc1F` (stereo not given), the AC50 was 17.8 µM [falling, single point] under setting [1] and 22.4 µM [falling, single point] under setting [2].

For the compound `CCC(=O)NC(/C=C/c1ccccc1)c1cc([N+](=O)[O-])c2cccnc2c1O` (stereo not given), under setting [2], the AC50 is 2.51 µM [rising, full curve].

On to `Cc1ccc(/C=N\NC(=O)Cn2c(C)nc3ccccc32)o1`, for which the AC50 was 10 µM [rising, partial curve] under setting [1] and 11.2 µM [rising, partial curve] under setting [2].

With `Cc1ccc(NC(=O)c2ccc(Cl)c(N3C(=O)C=CC3=O)c2)cc1`, the concentration at half-maximal activity (AC50) runs as follows: under setting [1], 12.6 µM [falling, single point]; under setting [2], 0.891 µM [falling, single point].

On to `CCN(CC)CCNC(=O)c1ccc(NC(=O)c2cn(-c3ccccc3)nc2-c2cccs2)cc1`, for which the AC50 under setting [1] is 22.4 µM [falling, single point] and the AC50 under setting [2] was 35.5 µM [falling, single point].

With `COc1cccc(-c2csc(N3CCN(C(=O)C4CCCCC4)CC3)n2)c1`, the AC50 under setting [2] was 12.6 µM [rising, single point].

For `O=S(=O)(c1ccc2c(c1)C(=NO)c1cc(S(=O)(=O)N3CCCCC3)ccc1-2)N1CCCCC1`, the AC50 by setting is: under setting [1], 0.891 µM [falling, full curve]; under setting [2], 0.891 µM [falling, full curve].

Regarding `CCOc1ccc(NC(=O)c2cnn3c2NC(c2ccccc2)=CC3c2cccc(OC)c2OC)cc1` (stereo not given), the AC50 reads like this: under setting [1], 1.41 µM [rising, full curve, poor fit]; under setting [2], 1.41 µM [rising, full curve].

For `Cc1ccc(C(=O)c2cc([N+](=O)[O-])ccc2N2CCOCC2)cc1C`, under setting [2], the AC50 is 3.55 µM [rising, partial curve].

Take `O=C(Nc1nc(-c2ccc3c(c2)OCCO3)cs1)c1ccc(S(=O)(=O)N2CCCCC2)cc1`: the concentration at half-maximal activity (AC50) is 8.91 µM [rising, partial curve] under setting [1] and 6.31 µM [rising, full curve] under setting [2].

For `COc1cccc(C(=O)NN/C(C)=C/C(=O)C(F)(F)C(F)(F)C(F)(F)F)c1`, the concentration at half-maximal activity (AC50) under setting [2] was 11.2 µM [rising, partial curve, poor fit].

Take `CN(C)c1ccc(-c2cncnc2NCCc2cnc[nH]2)cc1`: the AC50 was 10 µM [falling, partial curve] under setting [1] and 2.82 µM [falling, full curve, poor fit] under setting [2].

Regarding `Cc1ccc(C(=O)N2CCc3cc(CNC(=O)c4ccccc4F)ccc32)cc1`, the AC50 by setting is: under setting [1], 0.0224 µM [falling, full curve, poor fit]; under setting [2], 7.94 µM [falling, full curve, poor fit].

`O=c1c2ccccc2nnn1CSc1ccc2ccccc2n1`: the AC50 under setting [2] is 31.6 µM [rising, single point].

On to `Cc1ccccc1OC1C(=O)N(Cc2ccc3c(c2)OCO3)C1c1sccc1C` (stereo not given), for which the AC50 is 35.5 µM [falling, single point] under setting [1] and 35.5 µM [falling, partial curve] under setting [2].

In the case of `O=C(CS(=O)(=O)c1ccc(Cl)cc1)Nc1nc2ccc(Br)cc2s1`, the AC50 is, setting by setting: under setting [1], 35.5 µM [falling, single point]; under setting [2], 35.5 µM [falling, single point].

As for `Cc1nc(NC(=O)c2ccco2)sc1-c1csc(Nc2ccc(Cl)cc2Cl)n1`, the AC50 under setting [2] was 5.01 µM [falling, partial curve].

On to `Cc1ccc(-n2ncc3c(N4CCN(Cc5ccccc5)CC4)ncnc32)cc1C`, for which the AC50 is, setting by setting: under setting [1], 10 µM [falling, partial curve, poor fit]; under setting [2], 1.58 µM [falling, partial curve, poor fit].

Take `O=C(N/N=C/c1cc([N+](=O)[O-])ccc1O)C1C2CCCCC21` (stereo not given): the AC50 under setting [1] was 8.91 µM [falling, partial curve, poor fit] and the AC50 under setting [2] is 11.2 µM [falling, partial curve, poor fit].

With `CCCCCOC(=O)C1=C(C)NC(=O)NC1c1ccccc1OCC` (stereo not given), the AC50 by setting is: under setting [1], 20 µM [rising, partial curve, poor fit]; under setting [2], 31.6 µM [rising, single point].

`CCOCCc1nn2c(=O)cc(COC(=O)c3ccccc3Br)nc2s1`: the AC50 under setting [2] is 3.55 µM [falling, partial curve, poor fit].

For `CC(C)(C)N(NC(=O)OCc1ccccc1)C(=O)c1ccccc1Cl`, the half-maximal activity concentration (AC50) under setting [1] is 3.55 µM [rising, single point] and the AC50 under setting [2] was 5.62 µM [rising, single point].

`Cc1ccc(CNC(=O)C(=O)NCC(c2cccs2)S(=O)(=O)c2ccccc2)cc1` (stereo not given): under setting [1], the concentration at half-maximal activity (AC50) is 5.62 µM [rising, single point].

Take `N/C(=N\OC(=O)c1cc(Cl)ccc1Cl)c1ccccn1`: the AC50 under setting [2] was 1.41 µM [rising, full curve, poor fit].

Take `O=C(Nc1ccccn1)NC12CC3CC(CC(C3)C1)C2`: the AC50 under setting [1] was 5.62 µM [falling, single point] and the AC50 under setting [2] was 1.78 µM [rising, partial curve].

With `Cc1ccc(S(=O)(=O)c2c(C)nn(C(C)(C)C)c2OC(=O)c2ccc(Br)o2)cc1`, the AC50 is 7.08 µM [falling, partial curve] under setting [1] and 7.94 µM [falling, partial curve] under setting [2].

For the compound `O=C(Nc1ccc(N2CCCCC2)cc1)c1ccc2c(c1)OCCO2`, the AC50 is, setting by setting: under setting [1], 31.6 µM [rising, single point]; under setting [2], 17.8 µM [rising, single point].

As for `COC(=O)c1cc(C(=O)c2cc(Cl)ccc2O)coc1=N`, the AC50 was 0.0708 µM [rising, full curve, poor fit] under setting [1] and 0.282 µM [rising, full curve, poor fit] under setting [2].

`O=C(CCCN1C(=O)c2ccccc2C1=O)NCC1CCCO1` (stereo not given): under setting [2], the AC50 is 5.62 µM [falling, single point].

For the compound `COCCNC(=S)NCc1cccs1`, the AC50 under setting [2] was 0.0316 µM [falling, full curve, poor fit].

Turning to `COc1cc(OC)cc(C(=O)NC(=S)NNC(=O)Cc2cccs2)c1`, the AC50 under setting [2] was 12.6 µM [rising, partial curve].

As to `Cc1ccc(C(=O)Nc2cccc(C(=O)NCc3ccccc3)c2)cc1`, under setting [2], the AC50 is 6.31 µM [rising, single point].

In the case of `COC(=O)c1c(-c2ccccc2)csc1N`, the AC50 by setting is: under setting [1], 7.08 µM [rising, partial curve]; under setting [2], 14.1 µM [rising, partial curve].

Consider `Clc1ccc(Cl)c(OCCCCNCc2ccccc2)c1`, for which the AC50 under setting [1] was 10 µM [rising, partial curve].

Turning to `CCOc1ccc(C(C)NC(=O)c2ccccc2F)cc1` (stereo not given), the AC50 was 10 µM [rising, partial curve, poor fit] under setting [1] and 10 µM [rising, partial curve, poor fit] under setting [2].

For the compound `O=C(COc1ccc(F)cc1)NCc1ccc2c(c1)CCN2C(=O)c1ccc(F)cc1`, the AC50 runs as follows: under setting [1], 6.31 µM [rising, partial curve]; under setting [2], 10 µM [rising, partial curve, poor fit].

Regarding `Cc1cccc(OCC(=O)Nc2ccc(S(=O)(=O)N(Cc3ccccc3)c3ccccc3)cc2)c1`, under setting [2], the AC50 was 11.2 µM [rising, partial curve].

Turning to `Cc1cc(-n2c(C)nc3ccccc3c2=O)ccc1NC(=O)c1cccc([N+](=O)[O-])c1C`, the AC50 under setting [2] was 5.62 µM [rising, single point].

As for `O=C(NCc1ccccc1)N1CCN(c2ccc(Cl)c(Cl)c2)CC1`, the AC50 under setting [1] was 12.6 µM [rising, partial curve, poor fit] and the AC50 under setting [2] is 14.1 µM [rising, partial curve].

For the compound `C=CCC(Nc1ccccc1)C12C=CC(O1)C(C(=O)OC)=C2C(=O)OC` (stereo not given), the AC50 under setting [2] was 7.08 µM [rising, full curve, poor fit].

With `COc1cccc(Cn2c(=O)c(-c3ccccc3)nc3cnc(OC)nc32)c1`, the AC50 is, setting by setting: under setting [1], 17.8 µM [falling, single point]; under setting [2], 25.1 µM [falling, single point].

On to `O=C(Cn1cnc([N+](=O)[O-])c1)Nc1cc(Oc2ccc(Cl)cc2Cl)cc([N+](=O)[O-])c1`, for which the concentration at half-maximal activity (AC50) under setting [1] is 22.4 µM [falling, single point] and the AC50 under setting [2] was 14.1 µM [falling, partial curve].
